Assay: physchem
Conditions: octanol/water

Question: With `COC(=O)C1=C(C)NC(C)=C(C(=O)OC)C1c1ccccc1[N+](=O)[O-]` [NIFEDIPINE] as the compound, how does the logP read?
Answer: The logP was 3.3.
